From US12029738B2, “Antiproliferative compounds and methods of use thereof” (Celgene Corporation, priority 2017, dated 2024)
Certain results were filed several times, with different values. This is not the full list of results. An entry can have further records. The records of an entry differ, and nothing given here explains why; they may come from other doses, times, organisms or constructs than stated.

Protein sequences, listed by entry. Tags and fused reporters are not part of them. Residues count along the entry.
UniProt P14416, 1-414 isoform 2: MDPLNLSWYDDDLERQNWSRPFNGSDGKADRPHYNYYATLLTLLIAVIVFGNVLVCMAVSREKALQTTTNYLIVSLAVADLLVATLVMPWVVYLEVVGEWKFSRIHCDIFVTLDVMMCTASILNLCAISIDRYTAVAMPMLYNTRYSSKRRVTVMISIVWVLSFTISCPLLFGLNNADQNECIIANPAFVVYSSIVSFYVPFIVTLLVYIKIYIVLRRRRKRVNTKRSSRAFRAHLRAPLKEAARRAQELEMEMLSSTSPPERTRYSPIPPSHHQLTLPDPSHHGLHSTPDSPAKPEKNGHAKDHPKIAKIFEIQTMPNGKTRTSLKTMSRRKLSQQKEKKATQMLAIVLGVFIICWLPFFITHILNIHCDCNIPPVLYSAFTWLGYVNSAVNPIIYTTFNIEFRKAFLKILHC

Biological target: dopamine D2S receptor (Homo sapiens, UniProt P14416)
Test: Dopamine D2S receptor radioligand binding (HEK-293)
Conditions: read-out: D2S Binding IC50
Protocol: α1 Adrenergic and Dopamine D2 Receptors. Methods: Binding and functional assays for α1 adrenergic and dopamine D2 receptors were performed by Eurofins Cerep according to their methods.
Dopamine D2 Receptor. Binding at 10 μM. The binding assay evaluated the affinity of test articles for the dopamine D2 receptor in transfected human embryonic kidney (HEK)-293 cells. For determining the binding in the D2S receptor assay, test article was incubated with 0.3 nM [^3H] methylspiperone or 1 nM [^3H] 7-hydroxy-2-N,N-dipropylaminotetralin (7-OH-DPAT). [3H] Methylspiperone at 0.3 nM also was used as control ligand in the D2L binding assay. Cell membrane homogenates were incubated in duplicate at room temperature for 60 minutes with ligand in the absence or presence of test articles at 10 μM. After the incubation period, samples were filtered through glass fiber filters, the filters dried and then counted for radioactivity using a scintillation counter. Results are expressed as mean percent inhibition of control radioligand binding.
Binding IC50. To determine the binding IC50 in the D2 receptor assays, HEK-293 were tested as described above but with varying concentrations of test article. Compound A was tested at 0.01-30 μM in the D2S radioligand binding assay. Compound B was tested at 0.0003-10 μM in both the D2S and D2L binding assays. […]

In the case of `O=C1CC[C@H](N2Cc3c(OCc4ccc(CN5CCN(c6ccc(F)cc6F)CC5)cc4)cccc3C2=O)C(=O)N1` [Compound B], the IC50 was 16 nM to 47 nM, 16 nM, 21 nM, 47 nM.
